In PMC12259270, “Sensory neuron–expressed FGF13 controls nociceptive signaling in diabetic neuropathy models” (The Journal of Clinical Investigation, 2025):
Results are given in words; binding and its absence hold for the method and conditions named. In cells and extracts the contact can be indirect. Some entries that bind do so weakly or less than the wild type. Sequences can lack the tags named with a protein.

Amino acid sequences for entries named in this document (tags omitted). Residues count along the entry.
UniProt Q15858, residues 1791-1988: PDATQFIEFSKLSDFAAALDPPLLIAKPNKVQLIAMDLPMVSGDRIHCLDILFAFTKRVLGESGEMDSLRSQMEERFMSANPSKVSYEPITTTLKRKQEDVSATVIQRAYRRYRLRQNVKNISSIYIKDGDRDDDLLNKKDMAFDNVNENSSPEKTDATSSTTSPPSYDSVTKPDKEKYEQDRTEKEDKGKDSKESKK

Target: CD4-Nav1.7-CTD-NLuc (human) (UniProt Q15858)
Assay: split reporter; split-luciferase complementation assay (LCA) in transfected cells, 96-well plates, D-luciferin added at time zero, luminescence read at 2 min intervals for 20-30 min at 37 °C

B1: CLuc-FGF13 (protein, UniProt Q92913-2 1-192)
chain: MALLRKSYSEPQLKGIVTKLYSRQGYHLQLQADGTIDGTKDEDSTYTLFNLIPVGLRVVAIQGVQTKLYLAMNSEGYLYTSELFTPECKFKESVFENYYVTYSSMIYRQQQSGRGWYLGLNKEGEIMKGNHVKKNKPAAHFLPKPLKVAMYKEPSLHDLTEFSRSGSGTPTKSRSVSGVLNGGKSMSHNEST
Q: How did the binding turn out when B1 was run?
A: Its binding is “binds”.
